Experimental data reported in PubChem BioAssay AID1347076 (National Center for Advancing Translational Sciences (NCATS), 2019).
Several values for one entry are separate records, joined by “and”; a condition that tells them apart may be missing. Equal values may be shown once. Among all 400,000 compounds or so, about 13,000 (3.2%) were called active. Inconclusive results, whose numbers are uncertain, are shown with a selection of clear calls. Calls come from the whole dose curve; as a rule, active = well fitted cell-killing curve with a large enough effect; inconclusive = small, poorly fitted or top-dose-only effect, or effect the other way; inactive = flat fitted curve, though single readings scatter. Potencies of inconclusive entries are doubtful fits and often do not repeat.
% is set by controls: 0 for no effect and ±100 for the full control effect; potency is the fitted concentration of half-maximal effect.

Assay: qHTS assay for MDR1-selective chemotherapeutics: Primary screen using the drug-selected MDR subline cells KB-V1; note: nearly all actives have a fitted effect of over 60% in size
Conditions: KB-V1 MDR cells viability, CellTiter-Glo, 72 h; activity change, negative = cytotoxicity: at 46.1 µM (top of the series)
Summary of the method: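 Compound-treated KB-V1 multidrug-resistant cells, 72 h, 37 degrees C; viability by CellTiter-Glo. Fitted qHTS curves give the values.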
For `COc1ccccc1NS(=O)(=O)c1ccc2ccccc2c1`, the Potency was “inactive”.
For `COCCNc1nc(-c2cc(C)n(CCc3ccc(OC)cc3)c2C)cs1`, the Potency was inconclusive: 23.1 µM [rising, single point].
For `NNC(=O)c1[nH]c2ccc(Br)cc2c1-c1ccccc1`, the Potency was inconclusive: 29.1 µM [cytotoxic, single point].
With `Cc1ccc(-n2c(=O)c3ccc(C(=O)NCc4ccccc4Cl)cc3n(CC(N)=O)c2=O)cc1` the Potency was inconclusive: 2.06 µM [rising, partial curve, poor fit].
In the case of `COCCNC(=S)N(C)[C@H]1C[C@H]2c3cc(N4CCN(C)CC4)ccc3CCN2C(=O)[C@H]1[C@H](C)O`, the Potency is reported as “inactive”.
With `O=C(CCCn1c(=S)[nH]c2cc3c(cc2c1=O)OCO3)N1CCc2ccccc2C1` the Potency was “inactive”.
With `Cn1c(=O)c2cc(S(=O)(=O)Nc3ccc4c(c3)OCO4)ccc2n(C)c1=O` the Potency was inconclusive: 23.1 µM [cytotoxic, partial curve, poor fit].
For `Cc1ccc2[nH]c3c(NCc4ccco4)ncnc3c2c1`, the Potency was active: 18.4 µM.
With `CCN(CC)CCn1c(NCc2cc(OC)ccc2OC)nc2ccccc21` the Potency was inconclusive: 8.2 µM [cytotoxic, partial curve].
In the case of `CC12CCC(C/C1=N\OC(=O)c1c(F)cccc1F)C2(C)C` (configuration not stated), the Potency is reported as inconclusive: 29.1 µM [rising, single point].
For `CN(C(=O)COC(=O)C1(C)CC1(Cl)Cl)c1c(N)n(Cc2ccccc2)c(=O)[nH]c1=O` (configuration not stated), the Potency was inconclusive: 18.4 µM [rising, single point].
With `C=CCNC(=S)N/N=C(\C)c1ccc(-n2ccnc2)cc1` the Potency was “inactive”.
With `O=C(CSc1nncs1)Nc1cc(-c2ccccc2)nn1-c1ccccc1` the Potency was inconclusive: 6.51 µM [cytotoxic, partial curve].
In the case of `COc1cc(OC)cc(OCC(O)Cn2cnc3cc(C)c(C)cc32)c1` (configuration not stated), the Potency is reported as inconclusive: 20.6 µM [cytotoxic, single point].
For `Cc1ccccc1CN(c1ccc(C(=O)N2CCc3ccccc3C2)cc1)S(C)(=O)=O`, the Potency was active: 10.3 µM.
For `O=C(c1cc(-c2cccs2)on1)N1CCN(c2ccc(F)cc2)CC1`, the Potency was inconclusive: 29.1 µM [cytotoxic, single point].
For `C[C@@H]1[C@@H](Sc2ccccc2)CC(=O)O[C@@H]1c1ccc(-c2ccccc2)cc1`, the Potency was inconclusive: 16.4 µM [cytotoxic, single point].
In the case of `COc1ccc(NC(=O)c2ccc(S(=O)(=O)N3CCOCC3)cc2)c(OC)c1`, the Potency is reported as “inactive”.
With `O=C(/C=C/c1ccccc1)Nc1nc(-c2ccncc2)cs1` the Potency was inconclusive: 8.2 µM [cytotoxic, partial curve].
With `CCCCCCSc1nc(O)c(C2OC(=O)c3c2ccc(OC)c3OC)c(=O)n1CC` (configuration not stated) the Potency was inconclusive: 9.2 µM [rising, partial curve].
In the case of `COc1ccc(S(=O)(=O)N2CCCN(CC(=O)Nc3ccccc3F)CC2)cc1`, the Potency is reported as active: 9.2 µM.
With `CCN1CCOC(=O)C1CC(=O)Nc1cc(Cl)ccc1OC` (configuration not stated) the Potency was inconclusive: 29.1 µM [rising, single point].
With `CCN(CC)C(=O)C1=C(C)N(Cc2ccc(C(C)(C)C)cc2)C(=O)C(CC(=O)NCc2cccc3ccccc23)C1` (configuration not stated) the Potency was inconclusive: 32.6 µM [cytotoxic, single point].
With `Cc1cccn2c(=O)c3cc(C(=O)NCC4CCCO4)c(=N)n(C4CCCCC4)c3nc12` (configuration not stated) the Potency was “inactive”.
With `O=C(Nc1ccc([N+](=O)[O-])cc1)C1COc2ccccc2O1` (configuration not stated) the Potency was inconclusive: 18.4 µM [cytotoxic, partial curve, poor fit].
For `C/C(=N\NC(=O)c1cccc(Br)c1)c1ccccn1`, the Potency was active: 1.46 µM.
In the case of `CCOc1ccc(S(=O)(=O)N2CCN(Cc3ccc4c(c3)OCO4)CC2)cc1OCC`, the Potency is reported as inconclusive: 32.6 µM [cytotoxic, single point].
For `Cc1ccc(O)c(-c2[nH]ncc2C(=O)c2ccc(Cl)cc2)c1`, the Potency was inconclusive: 29.1 µM [cytotoxic, single point].
With `COc1ccc(C(=O)CC(=O)C(=O)Nc2ccc([N+](=O)[O-])cc2C)cc1` the Potency was inconclusive: 29.1 µM [cytotoxic, single point].
With `CCOC(=O)c1c(NC(=O)/C=C/c2ccc(OCC)cc2)sc2c1CCC2` the Potency was “inactive”.
In the case of `Cc1nn(-c2ccccc2)c(Cl)c1/C=N/NS(=O)(=O)c1ccc(Br)cc1`, the activity change, negative = cytotoxicity is reported as inconclusive: 31.1%.
With `CC1CCCCN1C(=O)CSc1nc2cc3c(cc2c(=O)n1Cc1ccc2c(c1)OCO2)OCO3` (configuration not stated) the Potency was inconclusive: 16.4 µM [cytotoxic, partial curve, poor fit].
In the case of `COc1ccc(N2CCN(C(=O)c3cc(-c4ccc(F)cc4)[nH]c3C)CC2)cc1`, the Potency is reported as “inactive”.
In the case of `CCC(=O)OCC(=O)Nc1cc([N+](=O)[O-])ccc1Cl`, the Potency is reported as “inactive”.
In the case of `COC(=O)C1=C(C)N(CCC2=CCCCC2)C(=O)C1`, the Potency is reported as “inactive”.
For `Cc1ccccc1C(=O)OCc1cnc(Cl)s1`, the Potency was inconclusive: 29.1 µM [rising, single point].
For `CN(C)c1ccc(-c2ccc([C@H]3[C@@H]4C=CCC[C@@]4(C)C(=O)N3Cc3ccccc3)c(F)c2)cc1`, the Potency was inconclusive: 23.1 µM [cytotoxic, single point].
In the case of `CC(=O)N1CCN(C(=O)c2ccccc2NS(=O)(=O)c2ccc(F)cc2)CC1`, the Potency is reported as “inactive”.
With `O=C(NCc1cccc(C(F)(F)F)c1)c1csc([C@H]2C[C@H](O)[C@@H](CO)O2)n1` the Potency was “inactive”.
For `Cc1cc(C)nc(Nc2nc(=O)c3ccccc3s2)n1`, the Potency was inconclusive: 23.1 µM [cytotoxic, partial curve].
For `N#Cc1cc2c(=O)n3ccccc3nc2n(-c2nnc(SCc3ccccc3)s2)c1=O`, the Potency was “inactive”.
With `CN(C)/C=N/c1ncc(C(=O)OC(C)(C)C)s1` the Potency was “inactive”.
For `CC(C)c1ccccc1NC(=O)COC(=O)c1c2c(nc3ccccc13)CCN(Cc1ccccc1)C2`, the Potency was inconclusive: 20.6 µM [cytotoxic, single point].
For `CCCCCCC(=O)Nc1nc(C)c(-c2csc(Nc3cc(OC)ccc3OC)n2)s1`, the Potency was “inactive”.
With `Cc1cc(C)nc(Nc2n[nH]c(-c3ccc(C(C)(C)C)cc3)n2)n1` the Potency was inconclusive: 29.1 µM [cytotoxic, partial curve, poor fit].
For `N/C(=N\OC(=O)Cc1ccc(-c2ccccc2)cc1)c1cccnc1`, the Potency was inconclusive: 23.1 µM [cytotoxic, partial curve].
In the case of `O=C(CSc1nc2ccc(NC(=O)c3ccccc3C(=O)O)cc2s1)Nc1c(Cl)cccc1Cl`, the Potency is reported as inconclusive: 29.1 µM [rising, single point].
With `CCC(=O)N1c2ccc(S(=O)(=O)N3CCN(c4ccccc4Cl)CC3)cc2CC1C` (configuration not stated) the Potency was inconclusive: 20.6 µM [cytotoxic, single point].
With `C=CCN(Cc1cc(OC)ccc1OC)C(=O)c1cc2ccc(OC)cc2[nH]1` the Potency was inconclusive: 20.6 µM [cytotoxic, single point].
With `NC(c1csc(NC(=O)Nc2ccccc2)n1)C1CCCCC1` (configuration not stated) the Potency was active: 18.4 µM.
In the case of `CC1CCN(CC(=O)N2c3ccccc3CCc3ccccc32)CC1`, the Potency is reported as inconclusive: 16.4 µM [cytotoxic, partial curve].
In the case of `CC1=C(C(=O)Nc2ccccc2F)C(c2ccsc2)C2=C(CC(C)(C)CC2=O)N1` (configuration not stated), the Potency is reported as “inactive”.
In the case of `O=C(/C=C\Nc1ccccc1Br)c1ccc2c(c1)OCO2`, the Potency is reported as inconclusive: 16.4 µM [cytotoxic, single point].
With `Cc1ccc(-c2nnn(CC(=O)N(CC(=O)NC3CCCC3)c3ccc(F)c(Cl)c3)n2)o1` the Potency was inconclusive: 18.4 µM [cytotoxic, single point].
In the case of `CCSc1nc2c(c(=O)n1Cc1ccccc1)SC(C)C2` (configuration not stated), the Potency is reported as inconclusive: 8.2 µM [cytotoxic, partial curve].
With `O=S(=O)(c1ccc(S(=O)(=O)N2CCN(C/C=C/c3ccccc3)CC2)cc1)N1CCCC1` the Potency was “inactive”.
In the case of `Cc1ccc(NC(CNS(=O)(=O)c2ccc(Cl)cc2)c2ccccc2)cc1` (configuration not stated), the Potency is reported as inconclusive: 25.9 µM [cytotoxic, partial curve, poor fit] and inconclusive: 18.4 µM [cytotoxic, partial curve, poor fit].
For `O=c1[nH]c2ccccc2nc1/C=C/c1ccc(O)cc1`, the Potency was inconclusive: 29.1 µM [cytotoxic, single point].
With `COc1ccccc1COC(=O)Nc1c(C)nn(C)c1Cl` the Potency was active: 23.1 µM.
In the case of `COCCN(C(=O)CCC(=O)Nc1ccccn1)C(C(=O)NC(C)(C)C)c1ccc(OC)cc1` (configuration not stated), the Potency is reported as “inactive”.
In the case of `S=C(NCC1CCCO1)Nc1ccc(Nc2ccccc2)cc1` (configuration not stated), the Potency is reported as inconclusive: 20.6 µM [cytotoxic, partial curve, poor fit].
With `CCOC(=O)c1ccc(NC(=O)CC2C(=O)N(c3ccc(F)cc3)C(=O)N2CCCOC)cc1` (configuration not stated) the Potency was inconclusive: 9.2 µM [cytotoxic, partial curve].
In the case of `C[C@H](CO)N1C[C@H](C)[C@@H](CN(C)CC2CCOCC2)Oc2cc(C#Cc3ccccc3F)ccc2S1(=O)=O`, the activity change, negative = cytotoxicity is reported as inconclusive: 56.3%.
For `COc1cc2oc3ccccc3c2cc1N(CC(=O)N(C)C)S(=O)(=O)c1ccc(C)cc1`, the Potency was inconclusive: 29.1 µM [rising, single point].
In the case of `Cc1ccccc1CSc1nnc(CCCCCNC(=O)OC(C)(C)C)o1`, the Potency is reported as inconclusive: 9.2 µM [cytotoxic, partial curve].
In the case of `CCOc1ccc(CCNC(=O)c2nn(-c3ccc(OC)cc3)c(=O)c3c2c2ccccc2n3C)cc1OCC`, the Potency is reported as “inactive”.
With `CC(C)C[C@H](NC(=O)c1nc[nH]c1C(=O)N[C@@H](CC(C)C)C(=O)OC(C)(C)C)C(=O)OC(C)(C)C` the Potency was inconclusive: 16.4 µM [cytotoxic, single point].
